PubChem BioAssay AID1259291 – Sanger Institute | 2017
Purpose: 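Find kinase and colorectal-cancer-mutated genes whose loss kills HT29 cells or aids anchor drugs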 (primary screen). Cells: HT29 human colorectal cancer cells. Knock-down reagent: siRNA pool against human genes. Challenge: anchor drugs added a day after transfection: BYL719 at 1 µM, cetuximab at 5 µg/ml or trametinib at 10 nM, or DMSO vehicle alone. Measured: 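Cell viability as a fraction of the non-targeting pool, mean of replicates, robust z-scores from control wells; synergy scores for BYL719 (1 µM), cetuximab (5 µg/ml), trametinib (10 nM)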. Scale: robust z-score, knock-down alone and viability, knock-down alone: higher = more viable cells; synergy score with BYL719 and synergy score with cetuximab and synergy score with trametinib: higher = stronger synergistic killing with drug. Active means: 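Essential when the robust z-score for knock-down without any drug is below -3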. Calls: active = essential (knock-down alone); inactive = no change alone.
Shown is one part, drawn at random, of 794 reagents tested. 15 of all reagents (1.9%) count as active. 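Calls rest on knock-down alone; drug synergy scores do not affect them; drugs added a day post-transfection, DMSO vehicle as comparison.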 Unmarked entries are inactive. Viability is capped at 1. Not stated in the record: the amount of reagent, the time to read-out.

gene	robust z-score, knock-down alone	viability, knock-down alone (fraction of control)	synergy score with BYL719	synergy score with cetuximab	synergy score with trametinib
EPHA4	0.121	0.973	0.044	-0.0268	-0.0413
TGFBR3	0.211	0.979	0.000463	0.0612	-0.0225
INSR	0.552	1	0.0626	0.0114	0.0739
IGF1R	0.552	1	0.0939	0.0157	0.02
SYK	0.447	0.993	0.255	0.0839	0.258
PDXK	-2.46	0.813	-0.19	-0.14	-0.153
SPHK1	-0.735	0.92	-0.056	-0.0799	0.109
SF3B1	-3.45 (active)	0.752	0.186	-0.00979	0.00799
PRKACA	0.552	1	0.0158	0	0.204
SPHK2	0.552	1	0.00289	0	-0.156
ERN2	-1.02	0.902	-0.0324	-0.0255	0.00707
IRAK3	0.552	1	0.17	0	0.0154
ITPKC	0.552	1	0.0998	0	-0.0955
DIS3	0.552	1	-0.0123	0.0597	-0.0629
MELK	0.552	1	-0.0537	0.0331	-0.00895
SHPK	0.0251	0.967	0.00362	0.0403	-0.128
MPP1	-0.175	0.955	-0.0449	-0.0452	-0.0157
DLG1	0.552	1	-0.0177	0.0645	-0.0649
TNIK	0.357	0.988	-0.0172	0.0251	-0.0161
STK33	-0.53	0.933	0.0736	-0.0155	0.0251
CDC42BPA	0.552	1	0.12	0.0403	0.0456
SIK3	-0.0842	0.961	-0.0763	0.105	0.049
IP6K3	0.552	1	0.068	0.0129	0.132
PCBP1	0.552	1	-0.0774	0.0164	0.0698
PTK2	0.552	1	-0.0496	0.0811	0.0737
CDK11B	-0.579	0.93	-0.201	-0.0234	-0.105
ACVR2A	-1.47	0.874	-0.128	-0.0951	-0.00674
RPS6KC1	0.552	1	-0.0858	0.027	0.144
PKN1	0.552	1	-0.0077	0	-0.0662
CDK1	0.552	1	-0.0982	0.0647	0.00638

Part of the list above, reformatted:
{"gene":"ERN2","robust z-score, knock-down alone":-1.02,"viability, knock-down alone (fraction of control)":0.902,"synergy score with BYL719":-0.0324,"synergy score with cetuximab":-0.0255,"synergy score with trametinib":0.00707}
{"gene":"IRAK3","robust z-score, knock-down alone":0.552,"viability, knock-down alone (fraction of control)":1,"synergy score with BYL719":0.17,"synergy score with cetuximab":0,"synergy score with trametinib":0.0154}
{"gene":"ITPKC","robust z-score, knock-down alone":0.552,"viability, knock-down alone (fraction of control)":1,"synergy score with BYL719":0.0998,"synergy score with cetuximab":0,"synergy score with trametinib":-0.0955}
{"gene":"DIS3","robust z-score, knock-down alone":0.552,"viability, knock-down alone (fraction of control)":1,"synergy score with BYL719":-0.0123,"synergy score with cetuximab":0.0597,"synergy score with trametinib":-0.0629}
{"gene":"MELK","robust z-score, knock-down alone":0.552,"viability, knock-down alone (fraction of control)":1,"synergy score with BYL719":-0.0537,"synergy score with cetuximab":0.0331,"synergy score with trametinib":-0.00895}
{"gene":"SHPK","robust z-score, knock-down alone":0.0251,"viability, knock-down alone (fraction of control)":0.967,"synergy score with BYL719":0.00362,"synergy score with cetuximab":0.0403,"synergy score with trametinib":-0.128}
{"gene":"MPP1","robust z-score, knock-down alone":-0.175,"viability, knock-down alone (fraction of control)":0.955,"synergy score with BYL719":-0.0449,"synergy score with cetuximab":-0.0452,"synergy score with trametinib":-0.0157}
{"gene":"DLG1","robust z-score, knock-down alone":0.552,"viability, knock-down alone (fraction of control)":1,"synergy score with BYL719":-0.0177,"synergy score with cetuximab":0.0645,"synergy score with trametinib":-0.0649}

More entries follow:
gene	robust z-score, knock-down alone	viability, knock-down alone (fraction of control)	synergy score with BYL719	synergy score with cetuximab	synergy score with trametinib
RPS6KA1	0.552	1	0.0385	0	-0.0539
BRAF	-1.07	0.899	0.0228	-0.0855	0.164
MAPK13	-2.33	0.821	-0.165	-0.179	0.0192
STKLD1	-1.44	0.876	-0.0849	-0.124	-0.0348
DGKD	0.277	0.983	-0.0665	-0.0171	0.025
GUCY2EP	-0.696	0.923	-0.116	-0.0204	-0.0266
TBX3	-0.852	0.913	-0.205	-0.0872	-0.0752
PFKFB4	0.552	1	0.0893	0.062	0.106
MAP3K4	0.552	1	-0.0408	0.0431	0.00179
ELP1	-0.331	0.945	-0.0283	-0.022	-0.0544
CKM	0.341	0.987	0.0017	-0.0126	-0.112
CDK8	0.542	0.999	0.0287	-0.000676	-0.0608
SBK1	0.552	1	-0.158	0	-0.133
NEK10	-1.56	0.869	-0.0297	-0.131	0.115
TSKS	-0.56	0.931	-0.0223	0.0387	-0.159
AURKA	-2.79	0.793	0.0704	0.0221	0.0203
IDH2	0.552	1	0.0898	0	-0.0517
MAP3K10	0.552	1	-0.14	0.0572	-0.0656
EPHA1	0.552	1	-0.0629	0	0.184
IRAK2	0.552	1	-0.104	0	0.0363
